The test can be described thus: qHTS Assay for Lipid Storage Modulators in Drosophila S3 Cells.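 For cell number change: cells counted by Cell Tracker Red CMTPX staining in the red channel.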 The following applies: BODIPY lipid droplet fluorescence, 18-24 h; for cell number change: measured here: cell count max response, cells fed with added oleic acid. An outline of the steps:
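Drosophila S3 cells loaded with oleic acid (400 uM, as added) and compounds at several concentrations; lipid droplets imaged by 488-nm laser-scanning cytometry, 500–530 nm intensity and object ratio to cell channel. Percent activity normalized to 20 uM Triacsin C.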
(In general: Quantitative high-throughput screening tests each substance at several concentrations.)

Where [1] appears, read: measured here: lipid fluorescence (Fed channel) AC50, cells fed with added oleic acid.
The mark [2] stands for this setting: measured here: cell number channel AC50, cells fed with added oleic acid.

The other results are listed elsewhere or left out. Shown are side measurements of this screen, not its main read-out; they come without a call. Compounds called inactive in the main read-out are mostly missing here. Words in brackets tell the shape of the fitted curve; partial curves, single points and poor fits give uncertain potencies.

Take `CC(NC(=O)COc1ccc(Br)cc1)C(=O)O` (stereo unspecified): the cell number change is -20.2%. Further, under setting [1], the AC50 (as a rule, the concentration at which the activity in the assay is half-maximal) is 0.731 µM [falling, partial curve, poor fit].
`Cc1cc(Br)c(Cl)cc1NC(=O)CN1C(=O)C2C3CC(c4ccccc4)C(C3)C2C1=O` (stereo unspecified): the cell number change came to 5.55%. The AC50 under setting [1] was 0.092 µM [rising, full curve, poor fit].
`Cc1ccc(-c2[nH]nc3c2C(c2ccccc2OC(=O)N2CCOCC2)C(C#N)=C(N)O3)cc1` (stereo unspecified): the cell number change was found to be 139%. For the same molecule, the half-maximal activity concentration (AC50) under setting [2] is 20.6 µM [rising, single point]. Besides, under setting [1], the AC50 was 29.1 µM [rising, single point].
Turning to `Cc1cc(C)cc(NC(=O)COc2coc(CN3CCN(c4ccccc4)CC3)cc2=O)c1`, the cell number change is -26.9%.
Take `O=C(NC1CCCC1)c1ccc(Cl)c(S(=O)(=O)N2CCCCC2)c1`: the cell number change came out at 3.95%.
For `O=C1CCCc2nc3nc4ccccc4n3cc21`, the cell number change was -0.517%.
Take `COCCn1c(SCCCc2ccccc2)nc2c1c(=O)[nH]c(=O)n2C`: the cell number change is -22.7%. The AC50 under setting [1] was 0.731 µM [rising, full curve, poor fit].
For the molecule `CCOc1ccc(N(CC(=O)NC2CC3CCC2C3)S(=O)(=O)c2ccc(C)cc2)cc1` (stereo unspecified), the cell number change was -35.5%. The half-maximal activity concentration (AC50) under setting [2] was 32.6 µM [falling, single point].
In the case of `COc1ccccc1Oc1ccc(N2CC(C(=O)OCC(=O)c3ccccc3)CC2=O)cc1` (stereo unspecified), the cell number change turned out to be 4.62%.
On to `O=C(O)Cc1ccccc1C(=O)O`, for which the cell number change was -163%. Further, under setting [2], the AC50 is 29.1 µM [falling, single point].
Consider `O=C(CCc1n[nH]c(=O)[nH]c1=O)N/N=C/c1ccco1`, for which the cell number change is -8.77%.
In the case of `O=c1c2ccccc2nc(/C=C/c2cc(Br)ccc2O)n1CCCO`, the cell number change was -22.2%.
As for `Oc1ccc(N=Nc2ccccc2)o1`, the cell number change is -54.5%. Further, the AC50 under setting [2] was 23.1 µM [falling, single point]. Moreover, the AC50 under setting [1] is 25.9 µM [falling, partial curve].
For `O=C(NCc1ccc(F)cc1)C1CC(=O)N(Cc2ccco2)C1` (stereo unspecified), the cell number change is -0.63%. The AC50 under setting [1] is 6.51 µM [rising, single point].
Consider `COc1ccccc1-n1ccnc1SCC(=O)NC(C)(C)C`, for which the cell number change was -35.7%.
On to `O=C(CNC(=O)c1ccc(N2C(=O)c3ccccc3C2=O)cc1)OCC(=O)c1ccc(Cl)cc1`, for which the cell number change turned out to be 8.13%. The AC50 under setting [2] was 5.17 µM [falling, single point].
In the case of `CCc1ccc(-c2nc(SCC(=O)NC3CCS(=O)(=O)C3)n[nH]2)cc1` (stereo unspecified), the cell number change was -8.64%. Under setting [2], the AC50 is 0.651 µM [falling, single point].
For `Cc1ccccc1-c1c(C)oc2cc(O)ccc2c1=O`, the cell number change is -10.5%.
Consider `CCOc1cc(/C=C2\C(=O)ON=C2c2ccccc2)cc(Br)c1O`, for which the cell number change is -21.7%. For the same molecule, the AC50 under setting [1] was 16.4 µM [falling, single point].
On to `O=C(NCc1nnnn1-c1ccc(F)c(F)c1)c1ccc2c(c1)OCO2`, for which, under setting [1], the AC50 is 6.51 µM [rising, single point].
For the molecule `COc1cccc(C(=O)NC(C)C(c2cccs2)N2CCOCC2)c1` (stereo unspecified), the cell number change was 4.25%.
In the case of `Cc1cccc(Nc2nc(N3CCOCC3)nc(N3CCOCC3)n2)c1`, the cell number change is -21.4%.
For the molecule `Cn1nc(-c2ccc(Cl)cc2)c2cc(C(=O)N3CCN(c4ccccc4)CC3)sc21`, the cell number change is -14.7%. Under setting [1], the AC50 is 0.164 µM [falling, full curve].
Turning to `CC1CCCCC1NC(=O)c1ccc(S(=O)(=O)NCc2ccco2)cc1` (stereo unspecified), under setting [1], the AC50 is 13 µM [falling, partial curve, poor fit].
As for `Cc1cc(C)c(C(=O)COC(=O)[C@H](C)Nc2ccc(C(F)(F)F)cc2[N+](=O)[O-])c(C)c1`, the cell number change is -2.56%. For the same molecule, the AC50 under setting [1] is 16.4 µM [falling, single point].
As to `COc1ccc(/C=N/NC(=O)c2cccc([N+](=O)[O-])c2)cc1OS(=O)(=O)c1ccccc1`, the cell number change is -57%. Further, the concentration at half-maximal activity (AC50) under setting [2] was 29.1 µM [falling, single point]. Also, the AC50 under setting [1] was 29.1 µM [falling, single point].
As to `Cc1onc(-c2ccccc2)c1C(=O)Nc1ccc(-c2nnc3n2CCCCC3)cc1`, the cell number change is -8.47%.
`Cc1ccc(C(=O)Nc2ccc(-c3csc(C)n3)cc2)cc1`: the cell number change came out at 14.6%. In addition, under setting [1], the AC50 is 7.31 µM [rising, partial curve].
For the molecule `CN1/C(=C\C(=O)COC(=O)c2ccccc2O)C(C)(C)c2ccccc21`, the cell number change was -37.1%. The AC50 under setting [2] is 29.1 µM [falling, single point]. Besides, the AC50 under setting [1] is 29.1 µM [falling, single point].
For the molecule `CN(CC(=O)O)S(=O)(=O)c1ccc2oc3ccccc3c2c1`, the cell number change was -9.39%. In addition, the AC50 under setting [1] was 0.58 µM [falling, single point].
As for `CC(C)(C)C(=O)NC1CC2CCCC(C1)N2C(=O)Nc1cccc(Cl)c1` (stereo unspecified), the cell number change is -30.2%. For the same molecule, under setting [2], the AC50 was 0.092 µM [falling, full curve, poor fit].
For `COc1ccc2c(c1)[nH]c1c(=O)n(CCCn3ccnc3)cnc12`, the cell number change was 39.3%. Besides, the concentration at half-maximal activity (AC50) under setting [2] was 32.6 µM [rising, single point].
Turning to `O=C1N=C(N2CCCCC2)S/C1=C\c1cn[nH]c1-c1ccccc1`, the cell number change came to 16.2%. The AC50 under setting [1] was 16.4 µM [rising, partial curve].
Regarding `O=C(CSc1nnc(-c2ccc(Cl)cc2)n1-c1ccc(Cl)cc1)N/N=C/c1ccccc1C(=O)O`, the cell number change turned out to be 12.2%.
As to `CCN1CCCC1CNCc1ccc(Cl)cc1Cl` (stereo unspecified), the AC50 under setting [1] was 29.1 µM [falling, partial curve].
Consider `CCOC(=O)C1CCCn2c1nc1sc3c(c1c2=O)CCCC3` (stereo unspecified), for which the AC50 is, setting by setting: under setting [2], 5.8 µM [falling, partial curve, poor fit]; under setting [1], 4.11 µM [falling, single point].
With `CC1CCC(NS(=O)(=O)c2ccc(N3CCCC3=O)cc2)CC1` (stereo unspecified), the cell number change was -19.4%. The AC50 under setting [2] was 0.00517 µM [rising, full curve, poor fit].
Turning to `CCC(C)c1ccc(OCC(=O)Nc2ccc3[nH]c(=O)[nH]c3c2)cc1` (stereo unspecified), the cell number change was -8.02%. Moreover, the AC50 under setting [1] is 29.1 µM [rising, single point].
As for `Cc1[nH]nc(-c2ccc(OCc3cnn(-c4ccccc4)c3)c(C)c2O)c1Oc1ccccc1`, the cell number change was -12.6%. Further, under setting [1], the AC50 is 29.1 µM [falling, single point].
In the case of `CCCCOc1ccc(C(=O)NCC(=O)NCc2ccncc2)cc1`, the cell number change worked out at 15.3%. The AC50 under setting [1] is 32.6 µM [rising, single point].
As to `O=C(NN=C1CCCC1)c1[nH]c2ccc(Br)cc2c1-c1ccccc1`, the cell number change is -55.2%. Also, the AC50 under setting [2] is 29.1 µM [falling, single point]. For the same molecule, the AC50 under setting [1] was 29.1 µM [falling, single point].
Take `Cc1ccc(Nc2ccc(C(=O)N3CCCC3)cn2)c(C)c1`: the cell number change is 43.5%. For the same molecule, the AC50 under setting [2] is 16.4 µM [rising, single point].
Regarding `COc1ccc(N=C2SC(C(=O)N3CCN(c4ccc([N+](=O)[O-])cc4)CC3)CC(=O)N2C)cc1` (stereo unspecified), the cell number change stood at 4.78%.
For the molecule `CC[C@H](C)[C@H](NC(N)=O)C(=O)NCCc1ccc(Cl)cc1`, the cell number change is -21.5%.
With `C=CCNC(=O)C1CC(=O)N(c2ccc(OCC(=O)Nc3c(C)cccc3C)cc2)C1` (stereo unspecified), the cell number change is 13.2%.
As to `COc1cccc(C(=O)Nc2cc(OC)ccc2NC(=O)c2ccco2)c1`, the cell number change is -0.293%. Besides, the AC50 under setting [1] was 18.4 µM [falling, single point].
Take `O=C(C[n+]1ccccc1)Nc1ccccc1[N+](=O)[O-]`: the cell number change worked out at 2.47%. Besides, the concentration at half-maximal activity (AC50) under setting [1] was 8.2 µM [rising, partial curve].
With `Cc1cccc(C)c1NC(=O)CSc1nnnn1C`, the cell number change amounted to 25.4%. Also, under setting [1], the AC50 was 6.51 µM [rising, single point].
For the molecule `O=C(O)C(Cc1ccccc1)N1Cc2ccccc2C1=O` (stereo unspecified), the cell number change is -28.5%. In addition, under setting [2], the AC50 was 3.26 µM [falling, single point]. Besides, the AC50 under setting [1] was 11.6 µM [falling, partial curve].
For the molecule `COc1cccc(N2CCN(C(=O)c3cc4cc(Cl)ccc4[nH]3)CC2)c1`, the cell number change worked out at 37.3%. For the same molecule, the concentration at half-maximal activity (AC50) under setting [2] is 29.1 µM [rising, single point].
For the molecule `Cc1cc(C)nc(Nc2cc([N+](=O)[O-])ccc2C)n1`, the cell number change worked out at 50.8%. The AC50 under setting [2] was 20.6 µM [rising, single point].
Regarding `Cc1c(C(c2cccs2)c2c(C)n(C)n(-c3ccccc3)c2=O)c(=O)n(-c2ccccc2)n1C`, the cell number change was -20.9%. In addition, under setting [1], the AC50 is 29.1 µM [falling, single point].
As for `Cc1cc(C)cc(Nc2ncc3c(n2)CC(c2ccco2)CC3=O)c1` (stereo unspecified), the cell number change is -84.9%. The AC50 under setting [2] is 29.1 µM [falling, single point]. Moreover, the AC50 under setting [1] was 18.4 µM [rising, single point].
Regarding `CCN1C(=O)[C@H]2[C@@H](c3ccc(C)cc3)N3C(=O)N(c4cccc(Cl)c4)C(=O)[C@@]3(CC)[C@H]2C1=O`, the cell number change is -15.4%.
As to `CCC1CCc2sc(C(=O)NNC(=O)c3ccncc3)cc2C1` (stereo unspecified), the cell number change came out at 30.5%. For the same molecule, the AC50 under setting [2] is 16.4 µM [rising, single point].
On to `N#C/C(=C\c1ccc(-c2ccc(C(=O)O)cc2)o1)C(=O)NCC1CCCO1` (stereo unspecified), for which the cell number change was -70.6%. Moreover, the concentration at half-maximal activity (AC50) under setting [2] was 20.6 µM [falling, single point].
Consider `Cn1cnc2cc(NC(=O)c3ccco3)ccc21`, for which the cell number change was -11.8%.
In the case of `Cc1ccc(S(=O)(=O)NC(C)(C)CSc2ccccn2)cc1`, the cell number change amounted to 22.3%.
Take `CC(=O)Nc1ccc(Nc2ccc([N+](=O)[O-])cn2)cc1`: the cell number change was determined as 18.9%. Further, under setting [1], the AC50 was 3.66 µM [rising, single point].
For `CCN(CC)CC(=O)NCC1(c2ccccc2)CCOCC1`, the AC50 under setting [1] was 5.17 µM [rising, partial curve].
Regarding `CCCCn1c(N)c(N(CCOC)C(=O)C2CC(=O)N(Cc3ccco3)C2)c(=O)[nH]c1=O` (stereo unspecified), the cell number change was found to be 3.51%. Under setting [2], the AC50 is 7.31 µM [falling, partial curve, poor fit].
For the molecule `COc1ccc(C(=O)Nc2nc3ccc(OC)cc3s2)cc1`, the cell number change was -47.5%. The AC50 under setting [2] was 13 µM [falling, partial curve, poor fit]. For the same molecule, the half-maximal activity concentration (AC50) under setting [1] was 6.51 µM [falling, single point].
On to `CCOC(=O)c1c(C)[nH]c(N=Nc2cccc(OC)c2)c1C`, for which the cell number change was -37.2%. Moreover, the AC50 under setting [2] was 13 µM [falling, single point]. In addition, under setting [1], the AC50 is 29.1 µM [falling, single point].
With `COc1cccc(CNS(=O)(=O)c2cc(Br)cc3c2N(C(C)=O)C(C)C3)c1` (stereo unspecified), the cell number change was determined as 87.3%. For the same molecule, under setting [2], the AC50 was 9.2 µM [rising, partial curve]. For the same molecule, the AC50 under setting [1] is 16.4 µM [rising, partial curve].

The values above are taken from PubChem BioAssay AID2685 (National Center for Advancing Translational Sciences (NCATS), 2010).
